These are yes or no findings as the source states them, for the method shown. In cells and extracts the contact can be indirect. Some binding calls cover weakened binding; strength is not graded here.
Tests used:
[1] = target: T1, MreC-mEosC (E. coli) (UniProt P16926); experiment: split reporter; BiFC specificity controls with split mEos3.2 in E. coli Bl21(de3) cells, two vectors, IPTG for 1 h
T1 sequence: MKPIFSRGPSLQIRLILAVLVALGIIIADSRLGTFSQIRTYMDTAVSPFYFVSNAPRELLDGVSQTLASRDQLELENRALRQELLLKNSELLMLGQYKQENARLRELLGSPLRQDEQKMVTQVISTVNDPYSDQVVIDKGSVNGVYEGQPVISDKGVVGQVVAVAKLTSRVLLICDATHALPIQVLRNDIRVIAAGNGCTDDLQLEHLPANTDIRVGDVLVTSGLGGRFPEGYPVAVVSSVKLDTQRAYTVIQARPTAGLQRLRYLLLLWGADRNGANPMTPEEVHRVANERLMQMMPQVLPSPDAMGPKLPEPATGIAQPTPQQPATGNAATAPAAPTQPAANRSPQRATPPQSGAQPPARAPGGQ

Chains of the proteins cited; added tags and fusions are not shown.
UniProt P0A9X4: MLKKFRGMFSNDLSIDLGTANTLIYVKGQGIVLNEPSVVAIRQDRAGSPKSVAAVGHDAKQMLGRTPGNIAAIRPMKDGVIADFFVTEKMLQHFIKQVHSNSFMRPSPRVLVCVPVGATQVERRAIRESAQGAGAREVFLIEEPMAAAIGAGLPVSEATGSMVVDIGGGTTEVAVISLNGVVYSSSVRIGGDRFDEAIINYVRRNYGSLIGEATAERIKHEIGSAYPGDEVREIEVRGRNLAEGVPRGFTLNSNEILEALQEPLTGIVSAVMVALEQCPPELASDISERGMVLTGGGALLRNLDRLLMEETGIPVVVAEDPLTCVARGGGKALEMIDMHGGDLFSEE
UniProt P0CE48: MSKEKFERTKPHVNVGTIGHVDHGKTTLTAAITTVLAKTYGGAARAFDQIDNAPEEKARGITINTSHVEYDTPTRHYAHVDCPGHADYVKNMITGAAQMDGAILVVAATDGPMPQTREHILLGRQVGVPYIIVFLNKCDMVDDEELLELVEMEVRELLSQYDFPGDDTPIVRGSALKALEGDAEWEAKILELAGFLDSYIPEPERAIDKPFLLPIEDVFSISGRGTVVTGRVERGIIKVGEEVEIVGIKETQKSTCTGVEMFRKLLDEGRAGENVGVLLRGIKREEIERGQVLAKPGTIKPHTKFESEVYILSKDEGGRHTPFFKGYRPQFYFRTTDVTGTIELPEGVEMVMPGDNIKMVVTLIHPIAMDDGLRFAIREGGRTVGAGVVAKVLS

[2] = target: MreB-mEosC (E. coli) (UniProt P0A9X4); experiment: split reporter; BiFC-PALM with split mEos3.2(164E) in E. coli cells of the MreB-mEosC strain, 200 uM IPTG for 1.5 h at 30 °C; fixed cells (imaging) and live cells (single-molecule tracking)

| Substance | binding [1] | binding [2] |
| --- | --- | --- |
| mEosN-EF-Tu (from UniProt P0CE48 1-394) | no binding | binds |
| mEosN-EF-Tu-Snap (from UniProt P0CE48 1-394) |  | binds |

— PMC4109008
